PMC7862700
The list shows a part of the results, in another mix than the full data. At the low end of the ranking the order means little.

Sequences of proteins named here, by UniProt entry; tags and fusion partners are left off. A change or cut given only in a name is not applied to a line headed by its entry.
UniProt O43186: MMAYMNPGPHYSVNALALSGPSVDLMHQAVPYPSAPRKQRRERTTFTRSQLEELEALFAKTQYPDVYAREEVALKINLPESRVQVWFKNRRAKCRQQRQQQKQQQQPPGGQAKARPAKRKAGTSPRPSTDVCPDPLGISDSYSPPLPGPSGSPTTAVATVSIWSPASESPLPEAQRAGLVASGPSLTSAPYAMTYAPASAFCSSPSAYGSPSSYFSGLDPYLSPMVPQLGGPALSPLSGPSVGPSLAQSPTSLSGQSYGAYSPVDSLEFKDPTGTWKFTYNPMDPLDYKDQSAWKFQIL

Molecular target: CRX (UniProt O43186)
Test: DAPPL (digital affinity profiling via proximity ligation, sequencing)
Details: 10 mM Tris-HCl pH 7.5, 50 mM NaCl, 1 mM DTT, 4% glycerol, room temperature, 30 min; GST-TFs on glutathione beads, 16-mer random dsDNA library, 0.1% …; high values mean tight binding; double strand, one strand shown; scale: fold enrichment (6-mer frequency, TF over GST control)

Row | Sequence | binding signal
1 | CTGTTT | 1.08
2 | AACCCA | 0.983
3 | ATGATC | 1.74
4 | CTCCGC | 1.3
5 | GATTTC | 1.52
6 | GCGTTC | 0.877
7 | GACCTC | 0.999
8 | TAATCT | 5.78
9 | ATGTCA | 0.835
10 | GTTCTT | 1.12
11 | CGACGA | 0.976
12 | ACCAAT | 1.16
13 | AAGAAT | 1.43
14 | ATAGAA | 1.28
15 | AGTTCC | 0.944
16 | CCCGCC | 1.21
17 | ACCCTA | 1.29
18 | GTCTTA | 1.94
19 | TCTTCT | 1.59
20 | CTCGTG | 0.922

Reformatted in markdown: entries from further up.

| Row | Sequence | binding signal |
| --- | --- | --- |
| 13 | AAGAAT | 1.43 |
| 14 | ATAGAA | 1.28 |

Additional results:

Row | Sequence | binding signal
21 | ATTAGC | 2.83
22 | TCGTAC | 0.958
23 | CTCTGC | 1.2
24 | GGGCTT | 1.77
25 | TGGTTT | 1.5
26 | ATATGA | 1.02
27 | TTCCCC | 1.44
28 | ATGTAA | 1.41
29 | AAGCAC | 1.09
30 | AAGTGG | 0.959
31 | ACGCCC | 0.87
32 | GGAAAC | 0.577
33 | ATAAAT | 1.75
34 | CTCGTA | 1.38
35 | AATAGC | 1.15
36 | CCTGGG | 0.97
37 | TAACTC | 1.58
38 | CTGCTA | 1.36
39 | TGCTGC | 0.949
